From patent US6288028A, “BPC peptide salts with organo-protective activity, the process for their preparation and their use in therapy” (priority 1997, dated 2001)
At least one peptide structure holds a part that was inferred or is arguable (an end, a ring closure or a residue). Where no end group is shown, it is not given here.

How the values were obtained:
[1] = Stability tests of BPC peptide salts (HPLC); assay type: physicochemical; details: 0.2% (w/v) aqueous solution; for assay (HPLC), 0 Days / assay (HPLC), 76 Days / assay (HPLC), 120 Days: 40° C.; for assay (HPLC), 0 Days: day 0; for assay (HPLC), 76 Days: day 76; for assay (HPLC), 120 Days: day 120
hemorrhagic shock = test: Experimental hemorrhagic shock; assay type: in vivo, rats; details: i.p. or i.v. after 65 minute stabilization
bleeding time [2] = test: Bleeding time after tail cutting, mice; assay type: in vivo
bleeding time [3] = test: Bleeding time after tail cutting, rats; assay type: in vivo
[4] = test system: clotting parameters in human blood; test: Clotting parameters in human blood in vitro; details: 10 μg/mI, incubation 1 hour
convulsions = test: Convulsions induced by bicucculine, picrotoxine, strychnine, isoniazide; assay type: in vivo; details: 100 μg, 10 μg or 10 ng/kg b.w. i.p., simultaneously or 15 minutes before convulsants
[5] = test system: segmental bone defects of radii; test: Healing of segmental bone defects; assay type: in vivo, rabbits; details: bone marrow locally; TRIS-BPC157 intramuscularly, particularly 10 μg/kg b.w. daily for 14 days; p<0.001
[6] = 10 μg, 10 ng, 1 μg, 10 fg/kg b.w., i.p. simultaneously with tail cutting
[7] = heparin 1000 lU/kg i.p. 2 hours before, 10 μg or 10 ng/kg b.w., i.p.
[8] = listed as disodium salt of BPC157

Sequence: GEPPPGKPADDAGLV [(TRIS)2 BPC157, di-TRIS Salt of BPC157]
- pH-value; 0.2% in water ([1]; listed as diTRIS salt of BPC157): 8.24

Sequence: GEPPPGKPADDAGLV [CaBPC157]
- arterial blood pressure, not exanguated rats (hemorrhagic shock): did not significantly influence the arterial blood pressure values

Sequence: GEPPPGKPADDAGLV [Example 2-AMP-BPC157, 2-aminopropanol Salt of BPC157]
- bleeding time, basal conditions, mice (bleeding time [2]; [6]): strong dose-dependent bleeding time reduction
- bleeding time after heparin pre-treatment, mice (bleeding time [2]; [7]): prominent reduction
- bleeding time, basal conditions, rats (bleeding time [3]; [6]): strong dose-dependent bleeding time reduction
- bleeding time after heparin pre-treatment, rats (bleeding time [3]; [7]): prominent reduction
- pH-value; 0.2% in water ([1]; listed as 2-AMP salt of BPC157): 8.20
- assay (HPLC), 0 Days ([1]; listed as 2-AMP salt of BPC157): 99.6 area %
- assay (HPLC), 76 Days ([1]; listed as 2-AMP salt of BPC157): 99.4 area %
- clotting parameters in human blood [4]: No influence

Sequence: GEPPPGKPADDAGLV [KBPC157]
- anti-convulsive effect (convulsions): consistently positive (dose and time dependent) anti-convulsive effect

Sequence: GEPPPGKPADDAGLV [Na2 BPC157, Disodium Salt of BPC157]
- pH-value; 0.2% in water [1, 8]: 7.64
- assay (HPLC), 76 Days [1, 8]: 99.7 area %
- assay (HPLC), 120 Days [1, 8]: 99.4 area %

Sequence: GEPPPGKPADDAGLV [TEAM-BPC157, Triethanolamine Salt of BPC157]
- pH-value; 0.2% in water ([1]; listed as TEAM salt of BPC157): 7.61
- assay (HPLC), 0 Days ([1]; listed as TEAM salt of BPC157): 99.2 area %
- assay (HPLC), 76 Days ([1]; listed as TEAM salt of BPC157): 99.3 area %
- assay (HPLC), 120 Days ([1]; listed as TEAM salt of BPC157): 99.1 area %

Sequence: GEPPPGKPADDAGLV [TRIS-BPC157, TRIS Salt of BPC157]
- bone healing (radiographs, histomorphometry) [5]: significantly improved bone healing
- pH-value; 0.2% in water ([1]; listed as TRIS salt of BPC157): 6.31

Sequence: GEPPPGKPADDAGLV [peptide BPC157 monoacetate, reference compound]
- pH-value; 0.2% in water [1]: 4.53
- assay (HPLC), 0 Days [1]: 99.2 area %
- assay (HPLC), 76 Days [1]: 97.8 area %
- assay (HPLC), 120 Days [1]: 95.3 area %
